Some peptides are written in HELM: one residue between dots, names in brackets for other building blocks, links after the first $. Square brackets hold non-standard residues; d marks the D form. pGlu = O=C1CC[C@@H](C(=O)O)N1

One series is described as follows: general procedure: Fmoc solid-phase peptide synthesis; Wang polystyrene resin (Boc-Val-CM resin for chelator conjugates); TBTU/DIPEA. To be noted: conjugation step, 214 nm, one disulfide bridge, sequence written open.
On to DOTA-Ala-Cys-Phe-Bip-Lys-Tyr-Cys-Val-OH, for which the “final HPLC purity” value is recorded as “≧98%”.

With NOTA-Ala-Cys-Phe-Bip-Lys-Tyr-Cys-Val-OH, the “final HPLC purity” value was “≧98%”.

The same series, now with this note: whole synthesis, 214 nm.
[pGlu]HGTAPE-NH2: the “final HPLC purity” value worked out at 95%.

Still in this series, the particulars now being: whole synthesis, 214 nm, one disulfide bridge, sequence written open.
Turning to H-Ala-Cys-Phe-Bip-Lys-Tyr-Cys-Val-OH, the “final HPLC purity” value is listed as “≧98%”.

“H-Ala-Cys-Phe-Phe(4-I)-Lys-Tyr-Cys-Val-OH”: the “final HPLC purity” value is recorded as “≧98%”.

The same series, now with this note: whole synthesis, 229 nm.
For the substance “H-Ala-Cys-Phe- ? Lys-Tyr-Cys-Val-OH [listing 1 of 5 here]”, the “final HPLC purity” value was determined as 97%.

For the substance “H-Ala-Cys-Phe- ? Lys-Tyr-Cys-Val-OH [listing 2 of 5 here]”, the “final HPLC purity” value came to 98%.

Turning to “H-Ala-Cys-Phe- ? Lys-Tyr-Cys-Val-OH [listing 3 of 5 here]”, the “final HPLC purity” value amounted to 98%.

“H-Ala-Cys-Phe- ? Lys-Tyr-Cys-Val-OH [listing 4 of 5 here]”: the “final HPLC purity” value is 98%.

With “H-Ala-Cys-Phe- ? Lys-Tyr-Cys-Val-OH [listing 5 of 5 here]”, the “final HPLC purity” value was found to be 97%.

In the case of “PEPTIDE1{A.C.F.[Tpi].[Orn].Y.C.V}$PEPTIDE1,PEPTIDE1,2:R3-7:R3$$$V2.0”, the “final HPLC purity” value came out at 98%.

Regarding “PEPTIDE1{A.[Pen].F.[Tiq].K.Y.C.V}$PEPTIDE1,PEPTIDE1,2:R3-7:R3$$$V2.0”, the “final HPLC purity” value was found to be 98%.

The same series, now with this note: whole synthesis, 229 nm, one disulfide bridge, sequence written open.
H-Ala-Cys-Phe- -Lys-Tyr-Cys-Val-OH: the “final HPLC purity” value is on record as 98%.

In the case of H-Ala-Cys-Phe-Aia-Lys-Tyr-Cys-Val-OH, the “final HPLC purity” value turned out to be 98%.

For H-Ala-Cys-Phe-Cha-Lys-Tyr-Cys-Val-OH, the “final HPLC purity” value came to 97%.

As to H-Ala-Cys-Phe-Dip-Lys-Tyr-Cys-Val-OH, the “final HPLC purity” value is 97%.

With H-Ala-Cys-Phe-Nal-Lys-Tyr-Cys-Val-OH, the “final HPLC purity” value is on record as 98%.

Take H-Ala-Cys-Phe-Phe(I)-Lys-Tyr-Cys-Val-OH: the “final HPLC purity” value is 98%.

As for H-Ala-Cys-Phe-Phg-Lys-Tyr-Cys-Val-OH, the “final HPLC purity” value came out at 97%.

Take H-Ala-Cys-Phe-Tic-Lys-Tyr-Cys-Val-OH: the “final HPLC purity” value came to 97%.

Turning to H-Ala-Cys-Phe-Tiq-Lys-Tyr-Cys-Val-OH, the “final HPLC purity” value was found to be 98%.

As to H-Ala-Cys-Phe-Tiq-Orn-Tyr-Cys-Val-OH, the “final HPLC purity” value was determined as 98%.

With H-Ala-Cys-Phe-Tpi-Lys-Tyr-Cys-Val-OH, the “final HPLC purity” value worked out at 97%.
